Earlier results as cited in patent publication US11008282B2, “Bicyclic-compounds for use as a medicament, in particular for treatment of parkinson's disease” (CAPROTEC BIOANALYTICS GMBH, priority 2015, dated 2021).
For at least one compound, name, drawing or mass did not settle the structure.

Sequences of proteins named here, by UniProt entry; tags and fusion partners are left off. A change or cut given only in a name is not applied to a line headed by its entry.
UniProt P9WGR1: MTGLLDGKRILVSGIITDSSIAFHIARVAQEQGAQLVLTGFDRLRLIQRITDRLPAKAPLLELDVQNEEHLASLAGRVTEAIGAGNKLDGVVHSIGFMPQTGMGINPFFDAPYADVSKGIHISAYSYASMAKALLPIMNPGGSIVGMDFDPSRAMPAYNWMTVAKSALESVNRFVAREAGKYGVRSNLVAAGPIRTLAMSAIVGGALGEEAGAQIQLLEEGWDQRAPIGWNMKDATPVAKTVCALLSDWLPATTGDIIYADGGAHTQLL

Target: enoyl-acyl carrier protein reductase (InhA) (Mycobacterium tuberculosis, UniProt P9WGR1)
Conditions: cited from earlier work

Compound: CCN(CC)C(=O)/C(C#N)=C/c1cc(O)c(O)c([N+](=O)[O-])c1 [entacapone]
- binding and inhibition of InhA: bind and inhibit
